Experiment [1] concerns the target T1, scrambled Njun peptide, biotinylated.
T1 sequence (peptide, biotin on the N-terminus (peptides for affinity chromatography)): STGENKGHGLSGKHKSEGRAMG
Kind of experiment: pull-down; NeutrAvidin–agarose affinity chromatography: biotinylated Njun or scrambled Njun on the agarose, recombinant RyR or RyR1 fragments (isolated from HEK293) incubated overnight at 4°C in PBS plus 0.1% SDS; RyR detected with 34C or anti-GFP antibody; both purified.

Protein sequences, listed by entry. Tags and fused reporters are not part of them. Lines headed by an entry give the natural chain unless they say otherwise; changes in a name come on top.
UniProt P11716: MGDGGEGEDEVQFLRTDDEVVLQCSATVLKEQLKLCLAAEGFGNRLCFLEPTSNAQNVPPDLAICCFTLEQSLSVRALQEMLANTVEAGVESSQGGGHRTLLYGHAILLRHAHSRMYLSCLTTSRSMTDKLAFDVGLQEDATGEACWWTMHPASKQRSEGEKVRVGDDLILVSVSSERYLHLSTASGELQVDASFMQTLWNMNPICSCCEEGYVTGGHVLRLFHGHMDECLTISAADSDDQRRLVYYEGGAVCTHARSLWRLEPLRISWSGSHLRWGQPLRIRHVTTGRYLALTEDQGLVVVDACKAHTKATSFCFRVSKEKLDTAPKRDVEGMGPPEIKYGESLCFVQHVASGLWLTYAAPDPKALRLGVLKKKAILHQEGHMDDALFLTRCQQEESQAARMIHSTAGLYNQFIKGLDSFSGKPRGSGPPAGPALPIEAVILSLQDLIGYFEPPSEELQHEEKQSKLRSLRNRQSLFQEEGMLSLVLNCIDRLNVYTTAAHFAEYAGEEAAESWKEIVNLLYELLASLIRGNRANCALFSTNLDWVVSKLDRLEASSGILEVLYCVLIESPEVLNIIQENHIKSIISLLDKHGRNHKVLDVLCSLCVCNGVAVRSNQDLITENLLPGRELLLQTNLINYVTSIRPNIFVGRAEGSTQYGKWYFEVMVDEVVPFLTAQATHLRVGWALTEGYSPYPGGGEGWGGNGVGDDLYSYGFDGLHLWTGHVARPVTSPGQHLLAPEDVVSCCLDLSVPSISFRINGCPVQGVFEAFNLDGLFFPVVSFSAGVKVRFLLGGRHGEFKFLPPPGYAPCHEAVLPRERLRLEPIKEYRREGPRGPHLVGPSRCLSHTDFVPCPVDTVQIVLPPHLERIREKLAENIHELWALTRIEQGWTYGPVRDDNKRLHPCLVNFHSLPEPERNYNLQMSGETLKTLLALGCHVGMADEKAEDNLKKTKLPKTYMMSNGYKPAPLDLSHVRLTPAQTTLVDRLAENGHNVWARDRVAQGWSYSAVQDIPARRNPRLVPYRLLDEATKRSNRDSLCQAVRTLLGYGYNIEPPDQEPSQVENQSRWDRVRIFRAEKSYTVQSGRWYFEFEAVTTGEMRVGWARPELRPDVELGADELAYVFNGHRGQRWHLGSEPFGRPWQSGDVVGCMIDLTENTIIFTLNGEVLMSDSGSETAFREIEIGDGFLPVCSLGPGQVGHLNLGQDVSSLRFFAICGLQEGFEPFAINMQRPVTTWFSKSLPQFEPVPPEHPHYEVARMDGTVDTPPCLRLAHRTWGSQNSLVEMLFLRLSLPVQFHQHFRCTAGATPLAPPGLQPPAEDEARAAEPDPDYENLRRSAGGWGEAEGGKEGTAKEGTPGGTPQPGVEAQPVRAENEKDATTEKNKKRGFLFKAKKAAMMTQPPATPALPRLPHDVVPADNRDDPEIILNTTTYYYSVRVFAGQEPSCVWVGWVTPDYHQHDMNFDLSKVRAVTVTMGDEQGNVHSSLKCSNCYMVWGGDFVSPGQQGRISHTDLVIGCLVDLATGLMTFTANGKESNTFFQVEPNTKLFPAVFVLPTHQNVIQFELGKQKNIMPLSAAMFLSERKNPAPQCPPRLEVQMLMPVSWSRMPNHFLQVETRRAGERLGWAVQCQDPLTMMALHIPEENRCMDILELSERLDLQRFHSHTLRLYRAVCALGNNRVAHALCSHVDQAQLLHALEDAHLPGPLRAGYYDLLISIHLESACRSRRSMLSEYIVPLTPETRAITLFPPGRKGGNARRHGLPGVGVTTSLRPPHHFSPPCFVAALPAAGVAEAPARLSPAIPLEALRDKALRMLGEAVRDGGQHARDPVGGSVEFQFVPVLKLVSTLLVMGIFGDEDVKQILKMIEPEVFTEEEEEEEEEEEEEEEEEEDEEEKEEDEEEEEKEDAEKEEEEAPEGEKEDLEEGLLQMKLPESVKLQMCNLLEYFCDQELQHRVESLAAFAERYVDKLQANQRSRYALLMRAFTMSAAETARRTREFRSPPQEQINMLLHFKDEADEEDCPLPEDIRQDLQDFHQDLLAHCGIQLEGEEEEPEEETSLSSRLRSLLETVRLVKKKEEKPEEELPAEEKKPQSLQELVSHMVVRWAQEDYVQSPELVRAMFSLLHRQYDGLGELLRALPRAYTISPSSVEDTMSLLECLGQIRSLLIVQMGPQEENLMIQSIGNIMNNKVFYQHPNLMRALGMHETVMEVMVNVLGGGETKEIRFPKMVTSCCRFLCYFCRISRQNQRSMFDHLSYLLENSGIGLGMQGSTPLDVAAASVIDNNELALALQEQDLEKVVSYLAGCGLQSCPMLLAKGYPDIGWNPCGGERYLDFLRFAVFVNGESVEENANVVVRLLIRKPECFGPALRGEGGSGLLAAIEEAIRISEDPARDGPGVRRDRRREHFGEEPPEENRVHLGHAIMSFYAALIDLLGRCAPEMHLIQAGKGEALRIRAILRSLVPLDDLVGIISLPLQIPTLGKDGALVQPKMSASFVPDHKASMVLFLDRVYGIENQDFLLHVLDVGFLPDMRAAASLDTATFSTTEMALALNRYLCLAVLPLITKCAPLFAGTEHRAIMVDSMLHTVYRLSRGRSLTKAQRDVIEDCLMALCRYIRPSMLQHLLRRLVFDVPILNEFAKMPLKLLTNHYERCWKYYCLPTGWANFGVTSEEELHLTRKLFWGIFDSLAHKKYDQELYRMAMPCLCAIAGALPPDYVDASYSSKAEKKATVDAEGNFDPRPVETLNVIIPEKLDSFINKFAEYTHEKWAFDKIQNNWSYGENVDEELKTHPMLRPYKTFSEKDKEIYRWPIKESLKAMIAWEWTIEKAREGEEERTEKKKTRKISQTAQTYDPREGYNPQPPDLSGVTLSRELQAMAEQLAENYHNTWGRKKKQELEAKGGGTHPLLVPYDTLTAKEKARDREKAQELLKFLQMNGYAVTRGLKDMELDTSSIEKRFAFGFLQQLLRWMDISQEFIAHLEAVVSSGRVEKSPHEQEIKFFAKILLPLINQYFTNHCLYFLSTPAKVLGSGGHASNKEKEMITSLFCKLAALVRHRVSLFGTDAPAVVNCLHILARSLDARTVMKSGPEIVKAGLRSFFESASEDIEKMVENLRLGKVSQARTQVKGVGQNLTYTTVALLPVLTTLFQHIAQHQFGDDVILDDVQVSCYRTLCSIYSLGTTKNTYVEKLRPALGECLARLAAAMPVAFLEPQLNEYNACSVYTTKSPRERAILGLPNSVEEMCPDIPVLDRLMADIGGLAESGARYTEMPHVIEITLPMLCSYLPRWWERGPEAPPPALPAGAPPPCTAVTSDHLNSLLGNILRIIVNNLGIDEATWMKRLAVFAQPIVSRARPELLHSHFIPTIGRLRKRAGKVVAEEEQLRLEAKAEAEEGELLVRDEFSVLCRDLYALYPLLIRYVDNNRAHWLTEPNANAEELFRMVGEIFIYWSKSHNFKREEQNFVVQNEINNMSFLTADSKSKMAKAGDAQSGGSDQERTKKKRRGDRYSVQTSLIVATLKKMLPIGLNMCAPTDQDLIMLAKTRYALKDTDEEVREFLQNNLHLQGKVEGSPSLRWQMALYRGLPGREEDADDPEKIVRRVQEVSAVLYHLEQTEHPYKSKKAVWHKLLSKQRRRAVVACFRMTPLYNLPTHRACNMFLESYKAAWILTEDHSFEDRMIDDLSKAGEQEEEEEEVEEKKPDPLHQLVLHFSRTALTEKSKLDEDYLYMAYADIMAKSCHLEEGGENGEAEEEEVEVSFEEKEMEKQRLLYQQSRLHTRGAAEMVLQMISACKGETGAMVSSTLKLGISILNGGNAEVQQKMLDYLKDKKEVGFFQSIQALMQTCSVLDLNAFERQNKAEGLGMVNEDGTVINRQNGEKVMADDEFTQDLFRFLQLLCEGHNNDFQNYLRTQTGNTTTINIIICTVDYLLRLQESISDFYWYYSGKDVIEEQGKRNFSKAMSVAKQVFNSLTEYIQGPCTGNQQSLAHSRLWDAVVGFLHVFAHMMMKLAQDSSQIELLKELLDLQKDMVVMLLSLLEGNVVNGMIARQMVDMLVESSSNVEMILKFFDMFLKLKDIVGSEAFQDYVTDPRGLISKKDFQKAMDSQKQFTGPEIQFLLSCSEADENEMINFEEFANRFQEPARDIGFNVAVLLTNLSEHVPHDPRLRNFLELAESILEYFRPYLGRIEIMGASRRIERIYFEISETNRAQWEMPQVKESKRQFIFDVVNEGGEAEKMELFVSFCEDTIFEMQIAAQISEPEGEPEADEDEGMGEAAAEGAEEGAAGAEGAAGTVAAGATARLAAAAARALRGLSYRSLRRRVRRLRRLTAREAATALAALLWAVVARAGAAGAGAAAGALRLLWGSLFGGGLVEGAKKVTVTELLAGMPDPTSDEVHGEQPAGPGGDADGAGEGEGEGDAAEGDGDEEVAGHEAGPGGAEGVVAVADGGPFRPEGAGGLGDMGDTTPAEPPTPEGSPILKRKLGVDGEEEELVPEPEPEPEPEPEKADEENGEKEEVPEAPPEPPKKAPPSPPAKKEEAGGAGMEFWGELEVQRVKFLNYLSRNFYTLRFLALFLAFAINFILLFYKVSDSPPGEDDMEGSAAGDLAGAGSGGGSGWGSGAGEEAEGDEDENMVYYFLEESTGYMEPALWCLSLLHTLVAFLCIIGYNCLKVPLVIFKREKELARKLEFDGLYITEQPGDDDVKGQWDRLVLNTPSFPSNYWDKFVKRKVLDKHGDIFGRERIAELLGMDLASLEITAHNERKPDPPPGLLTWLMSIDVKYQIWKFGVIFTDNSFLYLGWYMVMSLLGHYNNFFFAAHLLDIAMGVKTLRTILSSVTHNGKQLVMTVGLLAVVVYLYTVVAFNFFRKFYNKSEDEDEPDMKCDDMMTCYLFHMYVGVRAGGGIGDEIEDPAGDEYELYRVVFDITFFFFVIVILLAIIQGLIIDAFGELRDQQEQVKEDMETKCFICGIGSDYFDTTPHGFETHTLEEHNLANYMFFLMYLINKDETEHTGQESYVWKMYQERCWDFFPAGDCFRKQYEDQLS

Experiment [2] addresses T2, Njun peptide, N-terminal cytoplasmic domain of junctin (residues 1–22), biotinylated.
T2 sequence (peptide, biotin on the N-terminus (peptides for affinity chromatography)): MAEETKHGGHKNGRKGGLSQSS
Described as above.

No constants are given. Whether binding was seen depends on the method and setting.

Regarding “GFL (I), full-length recombinant rabbit RyR1, 5′ EGFP tagged (from UniProt P11716 1-5037)”, the binding entry in experiment [1] is on record as “no binding”. “RyR1 construct XIV, amino acids 1079–2156 (from UniProt P11716 1079-2156) (domain or fragment)”: the binding result in experiment [1] is “no binding”. In the case of “RyR1 construct XII, amino acids 4254–4535 (from UniProt P11716 4254-4535) (domain or fragment)”, the binding result in experiment [2] and in experiment [1] was “no binding” in each case.
